Measured values published in patent US11518794 (dated 2022).

Test: general procedure: Fmoc solid-phase peptide synthesis; Fmoc-Gly-Wang resin (0.279 mmol/g); 2-CTC resin; DIC/HOBt; PyBOP/HOBt/DIPEA
Details: whole synthesis; for isolated yield: total yield
[1] = HPLC, scale of the general procedure 4.25 g of Fmoc-Gly-Wang resin (0.279 mmol/g), run 1
[2] = HPLC, scale of the general procedure 4.25 g of Fmoc-Gly-Wang resin (0.279 mmol/g), run 2
[3] = HPLC, scale of the general procedure 4.25 g of Fmoc-Gly-Wang resin (0.279 mmol/g), run 3
[4] = HPLC, scale of the general procedure 4.25 g of Fmoc-Gly-Wang resin (0.279 mmol/g), run 4
[5] = HPLC, scale of the general procedure 4.25 g of Fmoc-Gly-Wang resin (0.279 mmol/g), run 5
[6] = HPLC, scale of the general procedure 4.25 g of Fmoc-Gly-Wang resin (0.279 mmol/g), run 6
[7] = HPLC, scale of the general procedure 4.25 g of Fmoc-Gly-Wang resin (0.279 mmol/g), run 7
[8] = HPLC, scale of the general procedure 4.25 g of Fmoc-Gly-Wang resin (0.279 mmol/g), run 8
[9] = HPLC, scale of the general procedure 4.25 g of Fmoc-Gly-Wang resin (0.279 mmol/g), run 9
[10] = HPLC, scale of the general procedure 4.25 g of Fmoc-Gly-Wang resin (0.279 mmol/g), run 10
[11] = scale of the general procedure 4.25 g of Fmoc-Gly-Wang resin (0.279 mmol/g), run 1
[12] = scale of the general procedure 4.25 g of Fmoc-Gly-Wang resin (0.279 mmol/g), run 2
[13] = scale of the general procedure 4.25 g of Fmoc-Gly-Wang resin (0.279 mmol/g), run 3
[14] = scale of the general procedure 4.25 g of Fmoc-Gly-Wang resin (0.279 mmol/g), run 4
[15] = scale of the general procedure 4.25 g of Fmoc-Gly-Wang resin (0.279 mmol/g), run 5
[16] = scale of the general procedure 4.25 g of Fmoc-Gly-Wang resin (0.279 mmol/g), run 6
[17] = scale of the general procedure 4.25 g of Fmoc-Gly-Wang resin (0.279 mmol/g), run 7
[18] = scale of the general procedure 4.25 g of Fmoc-Gly-Wang resin (0.279 mmol/g), run 8
[19] = scale of the general procedure 4.25 g of Fmoc-Gly-Wang resin (0.279 mmol/g), run 9
[20] = scale of the general procedure 4.25 g of Fmoc-Gly-Wang resin (0.279 mmol/g), run 10

In the case of liraglutide, the “crude HPLC purity” value [1] is reported as 70.61%, the “crude purity (method not given)” value [1] is reported as 70.61% and 71.68% and 72.02% and 72.72% and 70.72% and 71.53% and 72.03% and 70.36% and the “final HPLC purity” value [1] is reported as 99.27%. The “crude HPLC purity” value [2] was 68.61%, the “final HPLC purity” value [2] was 97.53% and the “crude HPLC purity” value [3] was 71.68%. For the same substance, the “final HPLC purity” value [3] was 99.31%, the “crude HPLC purity” value [4] was 72.02% and the “final HPLC purity” value [4] was 99.23%. The “crude HPLC purity” value [5] was 72.72%, the “final HPLC purity” value [5] was 99.36% and the “crude HPLC purity” value [6] was 70.72%. The “final HPLC purity” value [6] was 99.48%, the “crude HPLC purity” value [7] was 71.53% and the “final HPLC purity” value [7] was 99.50%. For the same substance, the “crude HPLC purity” value [8] was 72.03%, the “final HPLC purity” value [8] was 99.51% and the “crude HPLC purity” value [9] was 70.36%. For the same substance, the “final HPLC purity” value [9] was 99.48%, the “crude HPLC purity” value [10] was 68.63% and the “final HPLC purity” value [10] was 98.36%. It also gave a crude yield [11] of 91.2%, a crude yield [12] of 79.8% and a crude yield [13] of 90.2%. It also gave a crude yield [14] of 90.5%, a crude yield [15] of 91.5% and a crude yield [16] of 91.8%. It also gave a crude yield [17] of 91.5%, a crude yield [18] of 90.6% and a crude yield [19] of 90.8%. For the same substance, the crude yield [20] was 80.5%, the isolated yield [11] was 25.12% and the isolated yield [12] was 12.58%. It also gave an isolated yield [13] of 23.14%, an isolated yield [14] of 24.14% and an isolated yield [15] of 24.36%. It also gave an isolated yield [16] of 25.14%, an isolated yield [17] of 24.65% and an isolated yield [18] of 23.46%. For the same substance, the isolated yield [19] was 24.12%, the isolated yield [20] was 11.34% and the isolated mass (run 1) was 0.48 g. For the same substance, the isolated mass (run 2) was 0.47 g.

Several values for one entry are separate records, joined by “and”; a condition that tells them apart may be missing. Identical values can stand only once.
